# These are yes or no findings as the source states them, for the method shown. Binding seen in cells or lysates may run through a third protein. Here binding means that the protein was enriched with, or labelled near, the bait; the list need not be complete. Sequences can lack the tags named with a protein.
# T1: FLAG-STING (mouse) (UniProt Q3TBT3)
# T1 sequence: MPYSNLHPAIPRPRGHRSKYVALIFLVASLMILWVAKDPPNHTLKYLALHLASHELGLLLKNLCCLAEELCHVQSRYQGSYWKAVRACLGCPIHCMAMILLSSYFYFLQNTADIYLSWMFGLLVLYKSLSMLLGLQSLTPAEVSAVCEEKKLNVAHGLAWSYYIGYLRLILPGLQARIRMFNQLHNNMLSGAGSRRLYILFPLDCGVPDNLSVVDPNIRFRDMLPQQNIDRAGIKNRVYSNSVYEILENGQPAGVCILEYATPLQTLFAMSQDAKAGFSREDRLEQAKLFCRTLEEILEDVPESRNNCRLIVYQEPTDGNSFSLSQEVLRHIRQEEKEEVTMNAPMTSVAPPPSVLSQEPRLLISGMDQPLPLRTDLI
# Target: T1, FLAG-STING (mouse)
# Assay: affinity purification with mass spectrometry; FLAG-STING immunoprecipitated with anti-FLAG M2 Affinity Gel from lysates of reconstituted Sting-/- MEFs before and after DMXAA for 3 h; 50 mM HEPES-NaOH pH 7.2, 150 mM NaCl, 5 mM EDTA, 1% Triton X-100, overnight at 4 °C; eluted with FLAG peptide; proteins whose amount increased after stimulation and that are annotated as lysosome were selected
row,binding,Binder
1,binds,"Vps4b (protein, UniProt P46467 1-444) MASTNTNLQKAIDLASKAAQEDKAGNYEEALQLYQHAVQYFLHVVKYEAQGDKAKQSIRAKCTEYLDRAEKLKEYLKKKEKKPQKPVKEEQSGPVDEKGNDSDGEAESDDPEKKKLQNQLQGAIVIERPNVKWSDVAGLEGAKEALKEAVILPIKFPHLFTGKRTPWRGILLFGPPGTGKSYLAKAVATEANNSTFFSISSSDLVSKWLGESEKLVKNLFQLARENKPSIIFIDEIDSLCGSRSENESEAARRIKTEFLVQMQGVGVDNDGILVLGATNIPWVLDSAIRRRFEKRIYIPLPEAHARAAMFRLHLGSTQNSLTEADFQELGRKTDGYSGADISIIVRDALMQPVRKVQSATHFKKVRGPSRADPNCIVNDLLTPCSPGDPGAIEMTWMDVPGDKLLEPVVSMWDMLRSLSSTKPTVNEQDLLKLKKFTEDFGQEG"
2,binds,"Tsg101 (protein, UniProt Q61187 1-391) MAVSESQLKKMMSKYKYRDLTVRQTVNVIAMYKDLKPVLDSYVFNDGSSRELVNLTGTIPVRYRGNIYNIPICLWLLDTYPYNPPICFVKPTSSMTIKTGKHVDANGKIYLPYLHDWKHPRSELLELIQIMIVIFGEEPPVFSRPTVSASYPPYTATGPPNTSYMPGMPSGISAYPSGYPPNPSGYPGCPYPPAGPYPATTSSQYPSQPPVTTVGPSRDGTISEDTIRASLISAVSDKLRWRMKEEMDGAQAELNALKRTEEDLKKGHQKLEEMVTRLDQEVAEVDKNIELLKKKDEELSSALEKMENQSENNDIDEVIIPTAPLYKQILNLYAEENAIEDTIFYLGEALRRGVIDLDVFLKHVRLLSRKQFQLRALMQKARKTAGLSDLY"
3,binds,"Vps4a (protein, UniProt Q8VEJ9 1-437) MTTSTLQKAIDLVTKATEEDKAKNYEEALRLYQHAVEYFLHAIKYEAHSDKAKESIRAKCMQYLDRAEKLKDYLRNKEKHGKKPVKENQSEGKGSDSDSEGDNPEKKKLQEQLMGAVVMEKPNIRWNDVAGLEGAKEALKEAVILPIKFPHLFTGKRTPWRGILLFGPPGTGKSYLAKAVATEANNSTFFSVSSSDLMSKWLGESEKLVKNLFELARQHKPSIIFIDEVDSLCGSRNENESEAARRIKTEFLVQMQGVGNNNDGTLVLGATNIPWVLDSAIRRRFEKRIYIPLPEEAARAQMFRLHLGSTPHNLTDANIHELARKTEGYSGADISIIVRDSLMQPVRKVQSATHFKKVCGPSRTNPSVMIDDLLTPCSPGDPGAIEMTWMDVPGDKLLEPVVCMSDMLRSLATTRPTVNADDLLKVKKFSEDFGQES"

# From article PMC10014584
